{
  "sequences": {"note": "By UniProt entry, the sequences of proteins in these tests, tags left out. Residues count along the entry.", "UniProt O43557": "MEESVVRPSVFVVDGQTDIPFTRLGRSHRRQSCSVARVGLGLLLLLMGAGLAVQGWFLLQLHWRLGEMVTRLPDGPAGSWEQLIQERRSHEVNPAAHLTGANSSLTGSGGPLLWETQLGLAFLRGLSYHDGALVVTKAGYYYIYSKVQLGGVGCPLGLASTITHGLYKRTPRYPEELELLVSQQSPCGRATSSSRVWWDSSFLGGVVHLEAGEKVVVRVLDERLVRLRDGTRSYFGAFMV", "UniProt P48023, residues 103-281": "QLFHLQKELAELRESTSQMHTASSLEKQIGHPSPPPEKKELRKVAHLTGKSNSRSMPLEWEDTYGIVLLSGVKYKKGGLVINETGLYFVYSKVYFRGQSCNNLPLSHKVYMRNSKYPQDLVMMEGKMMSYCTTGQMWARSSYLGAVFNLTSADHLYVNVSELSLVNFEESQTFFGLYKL"},
  "source": "patent US20020065210A1",
  "binders": {"B1": {"name": "recombinant Fc-tagged DcR3 (expressed as described in Example 7, purified by Protein A chromatography) (Fc fusion, not shown: a dimerising Fc or GST)", "chain": "VAETPTYPWRDAETGERLVCAQCPPGTFVQRPCRRDSPTTCGPCPPRHYTQFWNYLERCRYCNVLCGEREEEARACHATHNRACRCRTGFFAHAGFCLEHASCPPGAGVIAPGTPSQNTQCQPCPPGTFSASSSSSEQCQPHRNCTALGLALNVPGSSSHDTLCTSCTGFPLSTRVPGAEECERAVIDFVAFQDISIKRLQRLLQALEAPEGWGPTPRAGRAALQLKLRRRLTELLGAQDGALLVRLLQALRVARMPGLERSVRERFLPVH", "modifications": "biotinylated in the FACS assay (sites not given)"}},
  "key": {"[1]": {"target": "full-length LIGHT expressed from pRK5 on transiently transfected 293 cells (UniProt O43557)", "experiment": "FACS, biotinylated Fc-tagged DcR3 on transiently transfected 293 cells, streptavidin-phycoerythrin (data not shown)"}, "[2]": {"target": "purified, soluble Fas ligand (Alexis Biochemicals) (UniProt P48023)", "experiment": "co-immunoprecipitation with protein A-sepharose, anti-Fas ligand immunoblot"}},
  "note": "No constants are given. Whether binding was seen depends on the method and setting. For some assays here: In cells and extracts the contact can be indirect. Some results given as binding are weak or reduced against the parent protein; the word gives no strength. Tags and fused reporters may be left off the sequences shown.",
  "data": [
    {"binder": "B1", "values": [
      {"measurement": "binding", "setting": "[1]", "value": "binds"},
      {"measurement": "binding", "setting": "[2]", "value": "binds"}
    ]}
  ]
}
